Patent US20130203067A1
Results are given in words; binding and its absence hold for the method and conditions named. Some entries that bind do so weakly or less than the wild type. Where a sequence is shown, tags or fusion partners need not be part of it. Each block holds one binder with its values, some of them ahead of it.

Protein sequences, listed by entry. Tags and fused reporters are not part of them.
UniProt P10415: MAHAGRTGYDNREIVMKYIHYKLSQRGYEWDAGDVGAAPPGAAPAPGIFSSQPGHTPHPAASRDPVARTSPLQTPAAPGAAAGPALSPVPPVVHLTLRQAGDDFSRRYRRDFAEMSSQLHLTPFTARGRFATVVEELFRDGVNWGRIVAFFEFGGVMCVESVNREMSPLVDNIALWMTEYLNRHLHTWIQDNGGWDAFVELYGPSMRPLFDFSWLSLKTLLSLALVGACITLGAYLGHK

Molecular target: B-cell lymphoma-2 (BCL2), native, untagged (UniProt P10415)
Test: in-cell stabilisation of PL fusion by co-expressed BCL-2, U2OS cells, EFC luminescence

- binding: binds
B1: Bax-PL fusion (truncated Bax peptide fused to ProLabel) (peptide, not shown: small tags and cut ends)
chain: QDASTKKLSECLKRIGDELDSNSLAVVLQRRDWENPGVTQLNRLAAHPPFASWRNSEEARTDR

- binding: binds
B2: Bak-PL fusion (truncated Bak peptide fused to ProLabel) (peptide, not shown: small tags and cut ends)
chain: GQVGRQLAIIGDDINRNSLAVVLQRRDWENPGVTQLNRLAAHPPFASWRNSEEARTDR
